From the supplement of paper PMC12067093, “Discovery and optimisation of a covalent ligand for TRIM25 and its application to targeted protein ubiquitination” (Chemical Science, 2025)
The other results are listed elsewhere or left out.

Chains of the proteins cited; added tags and fusions are not shown. Lines headed by an entry give the natural chain unless they say otherwise; changes in a name come on top.
UniProt Q16513: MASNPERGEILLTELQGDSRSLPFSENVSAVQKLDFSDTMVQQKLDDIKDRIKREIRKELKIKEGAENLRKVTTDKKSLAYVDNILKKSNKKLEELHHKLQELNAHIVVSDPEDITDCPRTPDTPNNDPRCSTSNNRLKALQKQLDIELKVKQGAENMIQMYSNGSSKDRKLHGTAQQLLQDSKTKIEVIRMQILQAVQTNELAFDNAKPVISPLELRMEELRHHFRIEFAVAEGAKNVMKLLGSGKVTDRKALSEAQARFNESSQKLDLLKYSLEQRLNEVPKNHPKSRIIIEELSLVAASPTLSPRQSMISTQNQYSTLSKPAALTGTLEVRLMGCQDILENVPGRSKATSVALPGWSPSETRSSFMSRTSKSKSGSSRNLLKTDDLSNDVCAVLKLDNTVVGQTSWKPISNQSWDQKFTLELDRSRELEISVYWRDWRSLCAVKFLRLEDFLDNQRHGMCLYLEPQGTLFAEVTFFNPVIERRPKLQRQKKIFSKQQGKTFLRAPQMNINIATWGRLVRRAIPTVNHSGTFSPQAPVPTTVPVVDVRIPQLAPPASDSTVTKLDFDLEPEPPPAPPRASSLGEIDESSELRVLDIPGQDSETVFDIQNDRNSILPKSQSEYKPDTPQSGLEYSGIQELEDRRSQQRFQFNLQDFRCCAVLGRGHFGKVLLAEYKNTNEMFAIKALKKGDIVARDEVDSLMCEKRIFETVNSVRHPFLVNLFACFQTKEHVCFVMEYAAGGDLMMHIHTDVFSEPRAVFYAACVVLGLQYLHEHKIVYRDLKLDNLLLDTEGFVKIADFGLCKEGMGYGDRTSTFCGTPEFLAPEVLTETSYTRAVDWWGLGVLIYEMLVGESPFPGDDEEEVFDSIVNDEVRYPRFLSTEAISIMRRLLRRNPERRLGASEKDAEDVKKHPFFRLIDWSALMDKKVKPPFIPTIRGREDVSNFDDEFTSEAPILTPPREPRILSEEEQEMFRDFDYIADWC
UniProt O43164: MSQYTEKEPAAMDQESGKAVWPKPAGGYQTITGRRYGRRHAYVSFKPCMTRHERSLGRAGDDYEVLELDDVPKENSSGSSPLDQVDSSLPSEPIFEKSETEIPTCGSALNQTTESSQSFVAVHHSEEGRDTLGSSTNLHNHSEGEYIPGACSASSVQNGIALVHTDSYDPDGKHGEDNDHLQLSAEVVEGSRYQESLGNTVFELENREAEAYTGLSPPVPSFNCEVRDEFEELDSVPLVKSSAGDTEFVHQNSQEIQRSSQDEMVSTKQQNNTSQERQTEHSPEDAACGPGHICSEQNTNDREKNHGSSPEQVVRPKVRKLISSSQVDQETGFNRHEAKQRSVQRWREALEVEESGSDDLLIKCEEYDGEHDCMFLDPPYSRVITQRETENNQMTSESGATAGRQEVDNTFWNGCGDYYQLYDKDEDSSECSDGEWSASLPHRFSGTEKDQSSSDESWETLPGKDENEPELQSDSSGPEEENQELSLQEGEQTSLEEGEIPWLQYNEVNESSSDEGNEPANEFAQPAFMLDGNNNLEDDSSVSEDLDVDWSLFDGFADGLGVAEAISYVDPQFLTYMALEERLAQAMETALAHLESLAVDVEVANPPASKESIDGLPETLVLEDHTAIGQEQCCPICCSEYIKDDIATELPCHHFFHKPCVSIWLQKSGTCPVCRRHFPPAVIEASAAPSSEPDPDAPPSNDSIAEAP
UniProt P53350, whole entry, looked up: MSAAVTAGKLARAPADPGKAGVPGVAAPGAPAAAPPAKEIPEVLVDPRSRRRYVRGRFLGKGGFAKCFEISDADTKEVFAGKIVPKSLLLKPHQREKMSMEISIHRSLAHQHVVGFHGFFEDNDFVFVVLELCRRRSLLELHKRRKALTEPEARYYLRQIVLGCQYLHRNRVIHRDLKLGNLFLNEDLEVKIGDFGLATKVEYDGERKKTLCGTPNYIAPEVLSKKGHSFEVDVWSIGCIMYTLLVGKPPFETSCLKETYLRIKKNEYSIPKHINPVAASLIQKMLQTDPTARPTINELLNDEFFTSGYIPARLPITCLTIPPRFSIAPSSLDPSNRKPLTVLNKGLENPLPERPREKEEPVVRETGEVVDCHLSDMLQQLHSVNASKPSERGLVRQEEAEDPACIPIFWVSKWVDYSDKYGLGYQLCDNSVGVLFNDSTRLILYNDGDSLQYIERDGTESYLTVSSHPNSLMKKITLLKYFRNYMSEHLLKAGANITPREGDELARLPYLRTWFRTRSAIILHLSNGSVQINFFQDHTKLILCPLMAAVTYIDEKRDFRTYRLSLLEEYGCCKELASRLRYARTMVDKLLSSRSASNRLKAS
UniProt P27986, whole entry, looked up: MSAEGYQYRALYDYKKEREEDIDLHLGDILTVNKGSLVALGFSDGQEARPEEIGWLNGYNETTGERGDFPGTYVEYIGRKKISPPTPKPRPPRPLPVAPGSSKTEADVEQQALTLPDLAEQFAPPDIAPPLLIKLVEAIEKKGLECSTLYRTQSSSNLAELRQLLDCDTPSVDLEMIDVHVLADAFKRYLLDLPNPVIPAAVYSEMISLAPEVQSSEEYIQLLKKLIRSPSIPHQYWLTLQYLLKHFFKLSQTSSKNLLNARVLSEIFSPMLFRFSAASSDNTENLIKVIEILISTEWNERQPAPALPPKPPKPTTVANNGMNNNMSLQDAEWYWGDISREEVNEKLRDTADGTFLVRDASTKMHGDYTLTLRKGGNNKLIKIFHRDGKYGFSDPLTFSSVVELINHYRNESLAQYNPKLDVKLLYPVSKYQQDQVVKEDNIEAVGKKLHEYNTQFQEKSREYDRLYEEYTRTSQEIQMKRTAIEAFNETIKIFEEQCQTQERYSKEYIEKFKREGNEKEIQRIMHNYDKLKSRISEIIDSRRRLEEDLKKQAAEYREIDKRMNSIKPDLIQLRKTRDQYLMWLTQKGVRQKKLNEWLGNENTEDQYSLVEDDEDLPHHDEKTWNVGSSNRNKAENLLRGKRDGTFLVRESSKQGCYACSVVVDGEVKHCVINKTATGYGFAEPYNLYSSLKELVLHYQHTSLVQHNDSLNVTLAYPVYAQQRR
UniProt Q13526, whole entry, looked up: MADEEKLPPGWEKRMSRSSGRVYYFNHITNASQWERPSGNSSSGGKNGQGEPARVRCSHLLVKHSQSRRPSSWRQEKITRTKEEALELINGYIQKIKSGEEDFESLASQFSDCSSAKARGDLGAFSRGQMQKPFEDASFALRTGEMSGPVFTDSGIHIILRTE
UniProt Q10713: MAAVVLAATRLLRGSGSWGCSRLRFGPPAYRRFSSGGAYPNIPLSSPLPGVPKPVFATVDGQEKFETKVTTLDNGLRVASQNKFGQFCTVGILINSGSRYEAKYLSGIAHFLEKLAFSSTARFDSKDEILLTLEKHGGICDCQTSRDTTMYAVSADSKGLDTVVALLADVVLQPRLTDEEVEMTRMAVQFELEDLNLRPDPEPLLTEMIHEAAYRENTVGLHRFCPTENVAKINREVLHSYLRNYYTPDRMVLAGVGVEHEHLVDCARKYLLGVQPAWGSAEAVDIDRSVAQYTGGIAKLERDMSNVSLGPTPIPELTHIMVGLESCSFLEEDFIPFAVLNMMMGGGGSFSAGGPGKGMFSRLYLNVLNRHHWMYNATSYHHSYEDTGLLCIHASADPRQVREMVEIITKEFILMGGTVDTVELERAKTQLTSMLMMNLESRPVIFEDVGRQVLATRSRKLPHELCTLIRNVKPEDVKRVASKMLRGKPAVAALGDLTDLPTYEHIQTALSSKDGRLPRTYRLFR
UniProt P08567: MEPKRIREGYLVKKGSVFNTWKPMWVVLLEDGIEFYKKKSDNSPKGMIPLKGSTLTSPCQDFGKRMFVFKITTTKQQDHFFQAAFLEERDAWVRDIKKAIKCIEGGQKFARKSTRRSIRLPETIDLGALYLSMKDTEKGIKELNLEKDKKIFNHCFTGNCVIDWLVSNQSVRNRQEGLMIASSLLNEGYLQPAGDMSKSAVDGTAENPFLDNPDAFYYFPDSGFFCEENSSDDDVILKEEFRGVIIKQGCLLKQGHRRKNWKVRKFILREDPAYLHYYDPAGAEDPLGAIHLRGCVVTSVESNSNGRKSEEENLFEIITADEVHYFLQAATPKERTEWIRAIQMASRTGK
UniProt P54277: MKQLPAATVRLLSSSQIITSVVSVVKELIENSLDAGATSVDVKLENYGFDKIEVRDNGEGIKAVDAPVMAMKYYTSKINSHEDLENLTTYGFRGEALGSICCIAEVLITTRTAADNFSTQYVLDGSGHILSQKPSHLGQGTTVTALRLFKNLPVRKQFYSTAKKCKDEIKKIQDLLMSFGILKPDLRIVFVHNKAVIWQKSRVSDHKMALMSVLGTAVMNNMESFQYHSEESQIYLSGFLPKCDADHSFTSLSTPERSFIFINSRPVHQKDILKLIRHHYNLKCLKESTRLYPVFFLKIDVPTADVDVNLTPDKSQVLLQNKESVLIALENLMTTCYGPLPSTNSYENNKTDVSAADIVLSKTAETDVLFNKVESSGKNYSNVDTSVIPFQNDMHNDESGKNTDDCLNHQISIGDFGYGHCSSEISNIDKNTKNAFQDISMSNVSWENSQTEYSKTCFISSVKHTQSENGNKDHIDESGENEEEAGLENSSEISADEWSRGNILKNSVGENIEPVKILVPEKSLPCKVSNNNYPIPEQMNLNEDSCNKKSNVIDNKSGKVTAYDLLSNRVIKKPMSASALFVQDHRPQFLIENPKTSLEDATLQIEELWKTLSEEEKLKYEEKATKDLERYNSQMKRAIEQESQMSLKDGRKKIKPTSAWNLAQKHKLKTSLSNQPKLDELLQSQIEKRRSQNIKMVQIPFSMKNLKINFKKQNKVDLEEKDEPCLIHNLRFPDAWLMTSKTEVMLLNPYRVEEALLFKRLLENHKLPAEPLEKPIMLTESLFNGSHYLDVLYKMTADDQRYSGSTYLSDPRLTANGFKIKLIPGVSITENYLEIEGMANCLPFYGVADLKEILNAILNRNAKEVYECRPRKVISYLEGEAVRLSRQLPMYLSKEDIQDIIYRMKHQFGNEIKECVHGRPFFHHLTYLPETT
UniProt P19174: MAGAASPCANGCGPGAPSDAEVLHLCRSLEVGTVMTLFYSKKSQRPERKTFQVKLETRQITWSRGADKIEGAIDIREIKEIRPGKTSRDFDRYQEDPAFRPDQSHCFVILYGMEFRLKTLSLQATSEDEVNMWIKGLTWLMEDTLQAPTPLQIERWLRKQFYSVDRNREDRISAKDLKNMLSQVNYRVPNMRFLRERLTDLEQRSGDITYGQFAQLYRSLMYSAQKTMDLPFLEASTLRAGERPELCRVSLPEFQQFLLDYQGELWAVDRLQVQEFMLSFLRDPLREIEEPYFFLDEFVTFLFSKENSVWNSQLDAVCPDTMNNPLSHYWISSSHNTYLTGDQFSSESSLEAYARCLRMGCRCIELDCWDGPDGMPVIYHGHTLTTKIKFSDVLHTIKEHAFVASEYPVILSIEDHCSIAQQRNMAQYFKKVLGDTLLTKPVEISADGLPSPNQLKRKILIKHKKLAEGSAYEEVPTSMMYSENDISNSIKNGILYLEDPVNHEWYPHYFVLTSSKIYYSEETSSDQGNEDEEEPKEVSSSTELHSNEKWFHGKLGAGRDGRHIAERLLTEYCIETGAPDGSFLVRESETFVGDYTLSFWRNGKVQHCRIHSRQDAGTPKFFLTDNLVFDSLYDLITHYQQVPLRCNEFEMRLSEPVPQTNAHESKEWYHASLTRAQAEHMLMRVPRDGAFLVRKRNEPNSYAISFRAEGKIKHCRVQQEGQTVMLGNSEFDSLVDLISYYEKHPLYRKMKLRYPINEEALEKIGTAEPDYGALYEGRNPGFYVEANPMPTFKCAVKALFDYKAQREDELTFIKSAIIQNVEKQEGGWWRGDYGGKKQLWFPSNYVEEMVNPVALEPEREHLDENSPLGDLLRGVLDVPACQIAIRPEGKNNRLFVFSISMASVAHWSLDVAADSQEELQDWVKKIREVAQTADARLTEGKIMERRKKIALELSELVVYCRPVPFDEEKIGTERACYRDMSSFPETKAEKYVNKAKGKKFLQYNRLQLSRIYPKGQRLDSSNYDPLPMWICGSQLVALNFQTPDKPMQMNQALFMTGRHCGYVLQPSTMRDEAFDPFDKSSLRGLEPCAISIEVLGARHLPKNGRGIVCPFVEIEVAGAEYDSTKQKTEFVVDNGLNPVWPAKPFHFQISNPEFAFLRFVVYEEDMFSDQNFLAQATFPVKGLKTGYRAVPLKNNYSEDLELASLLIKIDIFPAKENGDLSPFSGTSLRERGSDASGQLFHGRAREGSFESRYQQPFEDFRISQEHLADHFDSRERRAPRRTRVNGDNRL

Compound: CC1Cc2ccccc2N1C(=O)C1CCCN(C1)C(=O)CCl (mixture of isomers) [TRIM25 ligand 11 (diastereomer mixture)]
Test: probe-labelled cysteine peptide fold change vs DMSO (competition) (log2 fold change); higher = less target engagement (more negative = stronger competition)
Settings: 10 µM; THP-1; incubation time: 4 h
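Note: competitive chemoproteomic profiling in live THP-1 cells with an iodoacetamide desthiobiotin (IA-DTB) probe, comparing probe-labelled peptide intensities in compound-treated cells against DMSO-treated controls.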

In order of rising “probe-labelled cysteine peptide fold change” value:
1. PKN2_Q16513_394_TDDLSNDVCAVLK (UniProt Q16513)  -0.138
2. PJA2_O43164_48_HAYVSFKPCMTR (UniProt O43164)  -0.127
3. PLK1_P53350_405_QEEAEDPACIPIFWVSK (UniProt P53350)  -0.108
4. PIK3R1_P27986_498_IFEEQCQTQER (UniProt P27986)  -0.0877
5. PITPNM1_O00562_259_CNTGSEGSEAQPPGKPSTEAR (UniProt O00562)  -0.0479
6. PIN1_Q13526_57_CSHLLVK (UniProt Q13526)  -0.0441
7. PIK3CD_O00329_132_GLHEFDSLCDPEVNDFR (UniProt O00329)  -0.033
8. PIK3R4_Q99570_899_SESSAGICVPLSTSSQVPEVTTVQNK (UniProt Q99570)  -0.0236
9. PMPCA_Q10713_466_LPHELCTLIR (UniProt Q10713)  -0.0203
10. PLEK_P08567_59_GSTLTSPCQDFGK (UniProt P08567)  -0.0148
11. PMS1_P54277_457_TCFISSVK (UniProt P54277)  -0.0121
12. PLXNB2_O15031_1149_TLTETDLYCEPPEVQPPPK (UniProt O15031)  -0.00604
13. PLOD1_Q02809_369_NMGADLCR (UniProt Q02809)  0.0145
14. PMPCB_O75439_419_TNMLLQLDGSTPICEDIGR (UniProt O75439)  0.0199
15. PLCG1_P19174_646_CNEFEMR (UniProt P19174)  0.0609
16. PLCB2_Q00722_1108_QAACLEQIR (UniProt Q00722)  0.0693
17. PLAA_Q9Y263_631_HPSVNENFCNEK (UniProt Q9Y263)  0.22
